# Source: paper PMC7884074
# Chains of the proteins cited; added tags and fusions are not shown. Lines headed by an entry give the natural chain unless they say otherwise; changes in a name come on top.
# UniProt Q23096: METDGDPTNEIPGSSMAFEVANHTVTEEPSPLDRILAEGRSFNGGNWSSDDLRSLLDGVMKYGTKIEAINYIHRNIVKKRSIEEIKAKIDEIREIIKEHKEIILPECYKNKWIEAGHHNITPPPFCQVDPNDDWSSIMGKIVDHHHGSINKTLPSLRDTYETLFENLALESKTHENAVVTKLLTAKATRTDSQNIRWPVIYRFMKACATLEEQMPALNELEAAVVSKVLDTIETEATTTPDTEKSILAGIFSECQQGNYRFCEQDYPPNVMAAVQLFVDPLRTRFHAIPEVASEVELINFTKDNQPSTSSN
# These are yes or no findings as the source states them, for the method shown. Binding seen in cells or lysates may run through a third protein. These calls come from enrichment with a bait or labelling near it, and not all partners need be listed. For some of these results: A no says only that the protein was not detected with the bait. Tags and fused reporters may be left off the sequences shown.
# Tests used:
# [1] = molecular target: T1, SNPC-4::3xFlag (C. elegans) (UniProt P91868); assay: affinity purification with mass spectrometry; anti-Flag (M2 crosslinked to Protein G Dynabeads) IP of SNPC-4::3xFlag from lysate of him-8(e1489) L4 worms grown at 25°C; no-tag him-8(-) control; benzonase-treated lysate, 50 mM Tris-HCl pH 8.0, 150 mM NaCl, 5 mM MgCl2, 1 mM EGTA, 0.1% NP-40, 10% glycerol; FLAG peptide elution; n = 2 biological replicates
# T1 sequence: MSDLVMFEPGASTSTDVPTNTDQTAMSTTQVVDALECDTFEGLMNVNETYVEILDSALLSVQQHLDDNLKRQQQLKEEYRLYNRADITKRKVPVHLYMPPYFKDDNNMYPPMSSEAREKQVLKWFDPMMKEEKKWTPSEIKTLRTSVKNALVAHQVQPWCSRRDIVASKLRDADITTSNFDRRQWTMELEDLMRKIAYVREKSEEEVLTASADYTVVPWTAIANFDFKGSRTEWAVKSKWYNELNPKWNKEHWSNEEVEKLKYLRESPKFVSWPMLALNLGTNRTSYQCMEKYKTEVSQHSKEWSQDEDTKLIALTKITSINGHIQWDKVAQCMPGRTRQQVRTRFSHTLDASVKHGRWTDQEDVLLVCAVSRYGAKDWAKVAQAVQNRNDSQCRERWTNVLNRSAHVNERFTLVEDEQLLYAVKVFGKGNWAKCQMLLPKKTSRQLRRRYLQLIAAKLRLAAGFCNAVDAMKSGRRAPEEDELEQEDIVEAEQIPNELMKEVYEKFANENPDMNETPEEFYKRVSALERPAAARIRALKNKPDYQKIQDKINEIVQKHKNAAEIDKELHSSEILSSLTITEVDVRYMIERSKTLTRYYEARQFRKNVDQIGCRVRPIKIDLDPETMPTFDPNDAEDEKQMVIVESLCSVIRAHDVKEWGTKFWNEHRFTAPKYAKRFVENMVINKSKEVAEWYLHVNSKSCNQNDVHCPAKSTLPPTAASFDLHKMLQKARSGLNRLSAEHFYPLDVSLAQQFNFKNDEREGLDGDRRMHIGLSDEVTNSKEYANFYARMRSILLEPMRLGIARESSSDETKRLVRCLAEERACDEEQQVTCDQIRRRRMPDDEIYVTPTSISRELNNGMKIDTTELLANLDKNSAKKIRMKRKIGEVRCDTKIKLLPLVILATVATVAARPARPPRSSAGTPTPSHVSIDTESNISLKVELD
# [2] = molecular target: T1, SNPC-4::3xFlag (C. elegans); assay: affinity purification with mass spectrometry; anti-Flag (M2 crosslinked to Protein G Dynabeads) IP of SNPC-4::3xFlag from lysate of fem-1(hc17) females grown at 25°C; no-tag fem-1(-) control; benzonase-treated lysate, 50 mM Tris-HCl pH 8.0, 150 mM NaCl, 5 mM MgCl2, 1 mM EGTA, 0.1% NP-40, 10% glycerol; FLAG peptide elution; n = 2 biological replicates
binding [1],Substance,binding [2]
binds,SNPC-1.3 (C. elegans),no binding (only in feminized fem-1(-) mutants)
binds,TOFU-5 (from UniProt Q23096),binds
